Assay results published in US7018846 (SCIENCE AND TECHNOLOGY CORPORATION UNM, dated 2006).
These are yes or no findings as the source states them, for the method shown. Some results given as binding are weak or reduced against the parent protein; the word gives no strength.

Protein sequences, listed by entry. Tags and fused reporters are not part of them. Lines headed by an entry give the natural chain unless they say otherwise; changes in a name come on top. Chains listed by the source or under a name are the forms on record and can include a tag or linker.
C-terminally His-tagged N-formyl peptide receptor (P21462, form named): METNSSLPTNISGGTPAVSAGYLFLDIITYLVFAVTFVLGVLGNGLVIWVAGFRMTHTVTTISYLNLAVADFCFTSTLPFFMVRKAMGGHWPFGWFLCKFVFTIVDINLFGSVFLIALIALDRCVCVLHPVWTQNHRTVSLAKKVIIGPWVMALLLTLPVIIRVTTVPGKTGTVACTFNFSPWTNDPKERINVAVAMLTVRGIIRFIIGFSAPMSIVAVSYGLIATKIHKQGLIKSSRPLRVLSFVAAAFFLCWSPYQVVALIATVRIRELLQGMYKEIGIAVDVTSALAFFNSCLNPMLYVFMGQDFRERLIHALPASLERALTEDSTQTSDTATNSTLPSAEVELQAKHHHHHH

Key:
[1] = target: C-terminally His-tagged N-formyl peptide receptor (UniProt P21462); experiment: spectrofluorometric competition with 1 nM fMLFK-FITC
[2] = target: C-terminally His-tagged N-formyl peptide receptor (UniProt P21462); experiment: flow cytometry competition with 10 nM fMLFK-FITC on C-His FPR silica particles; peptide at 10^-5 M

binding [1]: binds
binding [2]: binds
B1: tboc-phe-leu-phe-leu-phe (peptide)
peptide: FLFLF
modifications: N-terminal t-boc group
